PubChem BioAssay AID1508597, Cure First – 2020

Screen: 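Knock-downs altering ovarian cancer cell survival with or without PARP inhibitor rucaparib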 (primary screen)
System: human ovarian carcinoma lines grown from tumours: OCI-P5x (papillary serous) and OCI-C5x (clear cell)
Reagents: siRNA pool against human genes, 1.25 pmol siRNA per well
Timing: 72 h or 96 h, depending on the cell culture
Challenge: rucaparib 20 µM (about IC30) or vehicle, present until read-out
Read-out: 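Luminescent ATP-based viability assay read 72 or 96 h after transfection, depending on culture, given as normalised percent viability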
Direction: viability, normalised: higher = more viable cells remaining
Active means: 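Active when normalised viability falls below 80 percent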
Meaning of the calls: active = viability under 80%; inactive = viability 80% or more
The deposit covers about 2,100 reagents; shown is a part drawn at random. 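Calls flag viability under 80% in either arm, not effects specific to rucaparib; the reference for percent is not stated.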 Unmarked entries are inactive. Not stated in the record: the 100% reference.

gene | rucaparib or vehicle | cell line | technical replicate | viability, normalised (%)
SGK2 | Rucaparib | OCI-C5x (clear cell) | 1 | 60.2 (active)
SGK2 | Rucaparib | OCI-C5x (clear cell) | 2 | 66.6 (active)
SGK2 | Rucaparib | OCI-C5x (clear cell) | 3 | 49.9 (active)
SGK2 | Rucaparib | OCI-P5x (serous) | 1 | 115
SGK2 | Rucaparib | OCI-P5x (serous) | 2 | 128
SGK2 | Rucaparib | OCI-P5x (serous) | 3 | 87.7
SGK2 | Vehicle | OCI-C5x (clear cell) | 1 | 60 (active)
SGK2 | Vehicle | OCI-C5x (clear cell) | 2 | 67.3 (active)
SGK2 | Vehicle | OCI-C5x (clear cell) | 3 | 57.4 (active)
SGK2 | Vehicle | OCI-P5x (serous) | 1 | 125
SGK2 | Vehicle | OCI-P5x (serous) | 2 | 102
SGK2 | Vehicle | OCI-P5x (serous) | 3 | 86.9
TSPYL1 | Rucaparib | OCI-C5x (clear cell) | 1 | 64 (active)
TSPYL1 | Rucaparib | OCI-C5x (clear cell) | 2 | 58.1 (active)
TSPYL1 | Rucaparib | OCI-C5x (clear cell) | 3 | 39.9 (active)
TSPYL1 | Rucaparib | OCI-P5x (serous) | 1 | 65.4 (active)
TSPYL1 | Rucaparib | OCI-P5x (serous) | 2 | 63 (active)
TSPYL1 | Rucaparib | OCI-P5x (serous) | 3 | 55.4 (active)
TSPYL1 | Vehicle | OCI-C5x (clear cell) | 1 | 61.3 (active)
TSPYL1 | Vehicle | OCI-C5x (clear cell) | 2 | 47.1 (active)
TSPYL1 | Vehicle | OCI-C5x (clear cell) | 3 | 50.7 (active)
TSPYL1 | Vehicle | OCI-P5x (serous) | 1 | 64.8 (active)
TSPYL1 | Vehicle | OCI-P5x (serous) | 2 | 42 (active)
TSPYL1 | Vehicle | OCI-P5x (serous) | 3 | 93.9

Continued; the last 4 above are carried over.
gene | rucaparib or vehicle | cell line | technical replicate | viability, normalised (%)
TSPYL1 | Vehicle | OCI-C5x (clear cell) | 3 | 50.7 (active)
TSPYL1 | Vehicle | OCI-P5x (serous) | 1 | 64.8 (active)
TSPYL1 | Vehicle | OCI-P5x (serous) | 2 | 42 (active)
TSPYL1 | Vehicle | OCI-P5x (serous) | 3 | 93.9
ING4 | Rucaparib | OCI-C5x (clear cell) | 1 | 45.5 (active)
ING4 | Rucaparib | OCI-C5x (clear cell) | 2 | 51 (active)
ING4 | Rucaparib | OCI-C5x (clear cell) | 3 | 40.2 (active)
ING4 | Rucaparib | OCI-P5x (serous) | 1 | 51.1 (active)
ING4 | Rucaparib | OCI-P5x (serous) | 2 | 63.2 (active)
ING4 | Rucaparib | OCI-P5x (serous) | 3 | 45.4 (active)
ING4 | Vehicle | OCI-C5x (clear cell) | 1 | 43.1 (active)
ING4 | Vehicle | OCI-C5x (clear cell) | 2 | 41.6 (active)
ING4 | Vehicle | OCI-C5x (clear cell) | 3 | 82.8
ING4 | Vehicle | OCI-P5x (serous) | 1 | 69.4 (active)
ING4 | Vehicle | OCI-P5x (serous) | 2 | 89
ING4 | Vehicle | OCI-P5x (serous) | 3 | 55.2 (active)
HUS1 | Rucaparib | OCI-C5x (clear cell) | 1 | 71.2 (active)
HUS1 | Rucaparib | OCI-C5x (clear cell) | 2 | 80.4
HUS1 | Rucaparib | OCI-C5x (clear cell) | 3 | 68.6 (active)
HUS1 | Rucaparib | OCI-P5x (serous) | 1 | 88.4
HUS1 | Rucaparib | OCI-P5x (serous) | 2 | 93.1
HUS1 | Rucaparib | OCI-P5x (serous) | 3 | 74 (active)
HUS1 | Vehicle | OCI-C5x (clear cell) | 1 | 70.6 (active)
HUS1 | Vehicle | OCI-C5x (clear cell) | 2 | 67.5 (active)
HUS1 | Vehicle | OCI-C5x (clear cell) | 3 | 56.7 (active)
HUS1 | Vehicle | OCI-P5x (serous) | 1 | 81.4
HUS1 | Vehicle | OCI-P5x (serous) | 2 | 103
HUS1 | Vehicle | OCI-P5x (serous) | 3 | 91.7
